“And” between values parts separate entries of the source, which are not always exact repeats. Identical values can stand only once. The whole screen tested about 320,000 compounds, of which about 22,000 (6.9%) were called active. The shares of active, inactive and inconclusive entries below differ from those in the screen. The call rests on the fitted dose curve; in most records, active means well fitted inhibition curve with a large enough effect; inconclusive means small, poorly fitted or top-dose-only effect, or another doubt; inactive means no such curve, though single readings can be large or run the other way. A potency beside an inconclusive call is a rough fit, not a confirmed value. A structure can be active in one record and inactive in another.
Test: Primary qHTS for delayed death inhibitors of the malarial parasite plastid, 96 hour incubation
Conditions: P. falciparum luciferase reporter growth; series mostly up to 28.7 µM
Outline: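 Infected RBCs, 2% Hct / 0.05% parasitemia final; luciferase-reporter P. falciparum; cpd 96 h, 37 C, 5% CO2; luciferase detection reagent; luminescence.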
Potency means the concentration at half of the fitted maximal effect.

Row | SMILES | Potency
1 | O=S(=O)(NCc1ccc2c(c1)OCO2)c1ccc(F)cc1 | inconclusive: 4.65 µM [inhibitor, partial curve]
2 | COc1cc2c(cc1OC)CN(Cc1ccc(F)cc1)CC2 | inactive
3 | O=C1Nc2cccnc2Sc2ccccc21 | inconclusive: 2.62 µM [inhibitor, full curve, poor fit]
4 | CN(Cc1ccc(F)cc1)Cc1nc(-c2ccccc2)no1 | active: 10.4 µM
5 | COc1cccc2[nH]c3c(N4CCCCC4)ncnc3c12 | inactive
6 | NS(=O)(=O)c1ccc(NC(=S)N2CCN(C(=O)C3CCCO3)CC2)cc1 (centres undefined) | inconclusive: 11.7 µM [inhibitor, single point]
7 | CC1CCN(Cc2c(C(=O)N/N=C/c3ccc(C(C)(C)C)cc3)nnn2-c2nonc2N)CC1 | inconclusive: 18.5 µM [inhibitor, single point]
8 | O=C(NCc1ccccc1)c1nccnc1CO | active: 10.4 µM
9 | CCCNC(=O)c1cc(S(=O)(=O)N2CCCCC2)ccc1N1CCOCC1 | inactive
10 | O=C(NN=C1CCCC1)C1COc2ccccc2O1 (centres undefined) | inconclusive: 1.85 µM [inhibitor, partial curve, poor fit]
11 | CC[C@H](C)[C@@H](CN[C@H](C)CNC)NCCC(c1ccccc1)c1ccccc1 | inconclusive: 1.31 µM [inhibitor, full curve, poor fit]
12 | O=C(NCCc1cccc(C(F)(F)F)c1)C1CCC(=O)N(Cc2ccc(Cl)cc2)C1 (centres undefined) | inconclusive: 13.1 µM [inhibitor, single point]
13 | O=C(O)c1ccc(N2C(=O)C3ON(c4ccccc4)C(c4ccccc4F)C3C2=O)cc1 (centres undefined) | inconclusive: 18.5 µM [inhibitor, single point]
14 | C#CCOCCOCCOCCNc1nc(N2CCN(C(=O)[C@H]([C@@H](C)O)n3cc(CCCCN)nn3)CC2)nc(N2CCN(C(=O)[C@H](C)n3cc(CCCN=C(N)N)nn3)CC2)n1 | inconclusive: 10.4 µM [inhibitor, single point]
15 | CCc1noc(C)c1C(=O)Nc1ccc(F)c(F)c1 | inactive
16 | O=C(N/C(=C/c1ccccc1)C(=O)N1CCOCC1)c1ccc([N+](=O)[O-])cc1 | inconclusive: 10.4 µM [inhibitor, single point]
17 | CCn1cc(C(=O)N[C@@H](CCSC)C(=O)NCCOC)c(=O)c2cc3c(cc21)OCO3 | active: 11.7 µM
18 | Cc1cc(C)c(-c2noc(C(=O)OC(C)(C)C)c2C(=O)OC(C)(C)C)c(C)c1 | inconclusive: 10.4 µM [inhibitor, single point]
19 | CCN1CCN(S(=O)(=O)c2ccc(Cl)c(C(=O)NCc3ccco3)c2)CC1 | inactive
20 | C[C@@H](CN(C)C)CN1c2ccccc2Sc2ccccc21 | inconclusive: 8.09 µM [inhibitor, single point]
21 | C/C(CCN1CCc2nc(-c3ccccc3)c(-c3ccccc3)cc2C1)=N\O[C@@H](C)c1cc(-c2c(C)cc(C)cc2C)no1 | active: 13.1 µM
22 | CC(=O)N(CCc1ccccc1)Cc1cc2ccc(C)c(C)c2[nH]c1=O | inconclusive: 9.28 µM [inhibitor, partial curve, poor fit]
23 | Cc1ccc(NC2=C(C(=O)c3ccccc3)N(C)S(=O)(=O)c3ccccc32)cc1 | active: 11.7 µM
24 | COc1ccccc1NC(=O)CNC(=O)c1ccc(Br)o1 | active: 0.0294 µM
25 | Cc1ccc(C(=O)NCCC2=CCCCC2)cc1S(=O)(=O)N1CCCCC1 | active: 4.65 µM

Row | SMILES | Potency
26 | Cc1nc(SC2CCOC2=O)c2c(C)c(C)sc2n1 (centres undefined) | inconclusive: 2.62 µM [inhibitor, partial curve, poor fit]
28 | COc1cc(/C=C/C(=O)N2CCC=CC2=O)cc(OC)c1OC | inconclusive: 18.5 µM [inhibitor, partial curve, poor fit]
29 | COC(=O)/C=C/c1ccc(-n2ccnc2)cc1 | inactive
30 | O=C(CNC(=O)C1CCCCC1)OCC(=O)c1ccc(Cl)s1 | inactive
31 | CC(C)(C)c1ccc(CSc2nnc(-c3ccccc3NC(=O)c3ccccc3)o2)cc1 | inconclusive: 18.5 µM [inhibitor, single point]
32 | COCCN1CCN(C(=O)C2CCC(=O)N(CCc3ccccc3)C2)CC1 (centres undefined) | active: 9.28 µM
33 | Cc1ccc(S(=O)(=O)N/N=C/c2cc(Br)c(C)o2)cc1 | inactive
34 | O=C1C=C(NC2CCCC2)CC(c2ccccc2)C1 (centres undefined) | inconclusive: 4.15 µM [inhibitor, partial curve, poor fit]
35 | CCCn1c(NCc2ccc3c(c2)OCO3)nc2ccccc21 | inconclusive: 18.5 µM [inhibitor, single point]
36 | CCOCC(=O)Nc1sc2c(c1C(=O)OCC)CCCC2 | inactive
37 | CC(C)CCC1(CCNC(=O)c2cccs2)CCOC(C)(C)C1 (centres undefined) | inactive
38 | CC(C)/C=C/CN1CCC(Oc2ccc(C(=O)N3CCCC3)cc2)CC1 | inactive
39 | COc1ccc(C2C(=O)c3ccccc3C2=O)cc1 | inconclusive: 11.7 µM [inhibitor, single point]
40 | O=C(O)c1ccc(NC(=O)C2C3CCC(O3)C2C(=O)O)cc1 (centres undefined) | inactive
41 | COc1ccc(NC(=S)Nc2ccc3nccnc3c2)cc1 | inconclusive: 9.28 µM [inhibitor, single point]
42 | O=C1N=c2ccccc2=C1c1sc(Nc2ccc(O)cc2)nc1O | inactive
43 | O=C(Nc1ccc(Cc2ccncc2)cc1)c1cc([N+](=O)[O-])ccc1N1CCOCC1 | inactive
44 | O=C(c1cc2ccccc2cc1O)N1CCN(c2ccc([N+](=O)[O-])cc2)CC1 | inconclusive: 6.57 µM [inhibitor, partial curve, poor fit]
45 | COc1cc(NC(=O)c2ccc([N+](=O)[O-])cc2)c(OC)cc1NC(=O)CC(C)C | inconclusive: 8.28 µM [inhibitor, single point]
46 | Cc1ccc(S(=O)(=O)Nc2ncc(C(F)(F)F)cc2Cl)cc1 | inactive
47 | COCc1cc(C)nc(OCC(=O)N/N=C/c2ccc(O)cc2O)c1C#N | inconclusive: 10.4 µM [inhibitor, partial curve, poor fit]
48 | Nc1c(C(=O)CSc2nncn2-c2ccccc2)c(=O)[nH]c(=O)n1C1CC1 | active: 11.7 µM
49 | CN(C1CCCCC1)S(=O)(=O)c1ccc(=S)[nH]c1 | inconclusive: 4.65 µM [inhibitor, partial curve]
50 | CC(=O)N1CCN(C(=O)CCc2cc(C(C)(C)C)c(O)c(C(C)(C)C)c2)CC1 | active: 13.1 µM

Row | SMILES | Potency
51 | COc1cc(OC)cc(C(=O)Nc2ccccc2C(=O)NCc2cccnc2)c1 | inconclusive: 1.31 µM [inhibitor, full curve, poor fit]
52 | CCOc1ccccc1NC(=O)CSc1nc2c(c(=O)n(C)c(=O)n2C)n1C | inactive
53 | CCOC(=O)C(C)/C(C)=N/NC(N)=S (centres undefined) | active: 4.65 µM
54 | CCOc1cc(/C=C/c2nc3cc(C)c(C)cc3s2)ccc1OCC(=O)N1CCOCC1 | active: 10.4 µM
55 | Cc1nn(C)c(Cl)c1CN1CCCC(C(=O)Nc2ccc(-c3cscn3)cc2)C1 (centres undefined) | inconclusive: 18.5 µM [inhibitor, single point]
56 | CSc1nc(N)c2c(n1)OC(N)=C(C#N)C2c1cccnc1 (centres undefined) | inconclusive: 14.7 µM [inhibitor, single point]
57 | Cc1ccc(S(=O)(=O)n2nccc2-c2c(-c3ccc(Cl)cc3)noc2C)cc1 | active: 0.37 µM
58 | COc1ccc(NC(=O)/C=N/O)cc1 | inconclusive: 0.233 µM [inhibitor, full curve, poor fit]
59 | Cc1cc(C)c(C#N)c(SCC(=O)c2ccc(Cl)cc2Cl)n1 | active: 10.4 µM
60 | O=C(Nc1ccccc1Br)C1CC(=O)N(c2ccc3c(c2)OCCO3)C1 (centres undefined) | inconclusive: 4.15 µM [inhibitor, single point]
61 | Cc1cnn(-c2ccc3nnc(-c4ccc(Br)cc4)n3n2)c1 | inactive
62 | CCS(=O)(=O)N1CCC(C(=O)N2CCOCC2)CC1 | inconclusive: 18.5 µM [inhibitor, single point]
63 | COc1ccccc1C(=O)NC(=O)Nc1nc(-c2ccccc2)cc(C(F)(F)F)n1 | active: 3.7 µM
64 | Cc1ccc(NC(=S)N2CCN(S(C)(=O)=O)CC2)cc1 | active: 10.4 µM
65 | CCc1ccccc1OCC(=O)Nc1cc(S(=O)(=O)N(CC)CC)ccc1N1CCOCC1 | active: 1.17 µM
66 | O=C(NCc1ccccc1)c1ccccc1CO | inconclusive: 18.5 µM [inhibitor, single point]
67 | CCCC(C)C(=O)Nc1nc(C)c(-c2csc(Nc3cc(Cl)ccc3C)n2)s1 (centres undefined) | inconclusive: 11.7 µM [inhibitor, partial curve, poor fit]
68 | Cc1c(Cl)cccc1NC(=S)N1CCCN(Cc2ccccc2F)C1 | inconclusive: 10.4 µM [inhibitor, single point]
69 | CCc1cc(CNC(=O)c2ccc(OC3CCN(C(C)=O)CC3)c(OC)c2)on1 | inactive
70 | O=C(CCCCCN1C(=O)[C@@H]2Cc3ccccc3CN2C1=O)Nc1ccccc1Cl | inconclusive: 10.4 µM [inhibitor, partial curve, poor fit]
71 | COc1ccccc1C(CC(N)=O)c1ccco1 (centres undefined) | inconclusive: 18.5 µM [inhibitor, partial curve, poor fit]
72 | CNc1nc(SC)n(C)c(=O)c1N=O | inconclusive: 18.5 µM [inhibitor, single point]
73 | CCOCCCNC(=O)C1CCC(CNS(=O)(=O)c2cccc3nsnc23)CC1 (centres undefined) | active: 3.7 µM
74 | Cc1cc(NC(=O)c2ccc3c(c2)C(=O)N(C)C3=O)no1 | active: 2.94 µM

From PubChem BioAssay AID504834 (National Center for Advancing Translational Sciences (NCATS), 2011)
